Results from patent publication US20200190168A1.
Results are given in words; binding and its absence hold for the method and conditions named. Some binding calls cover weakened binding; strength is not graded here.

The chains behind the UniProt entries cited, without tags or fusion partners. Where a name states a change or a piece, a line headed by the entry shows the natural chain unless it says otherwise. Residues count along the entry.
UniProt P20023, residues 21-153: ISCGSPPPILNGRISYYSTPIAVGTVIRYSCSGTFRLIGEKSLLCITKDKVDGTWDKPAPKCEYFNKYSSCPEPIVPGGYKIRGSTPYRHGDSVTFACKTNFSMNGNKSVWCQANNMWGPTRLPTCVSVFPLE
UniProt P03200: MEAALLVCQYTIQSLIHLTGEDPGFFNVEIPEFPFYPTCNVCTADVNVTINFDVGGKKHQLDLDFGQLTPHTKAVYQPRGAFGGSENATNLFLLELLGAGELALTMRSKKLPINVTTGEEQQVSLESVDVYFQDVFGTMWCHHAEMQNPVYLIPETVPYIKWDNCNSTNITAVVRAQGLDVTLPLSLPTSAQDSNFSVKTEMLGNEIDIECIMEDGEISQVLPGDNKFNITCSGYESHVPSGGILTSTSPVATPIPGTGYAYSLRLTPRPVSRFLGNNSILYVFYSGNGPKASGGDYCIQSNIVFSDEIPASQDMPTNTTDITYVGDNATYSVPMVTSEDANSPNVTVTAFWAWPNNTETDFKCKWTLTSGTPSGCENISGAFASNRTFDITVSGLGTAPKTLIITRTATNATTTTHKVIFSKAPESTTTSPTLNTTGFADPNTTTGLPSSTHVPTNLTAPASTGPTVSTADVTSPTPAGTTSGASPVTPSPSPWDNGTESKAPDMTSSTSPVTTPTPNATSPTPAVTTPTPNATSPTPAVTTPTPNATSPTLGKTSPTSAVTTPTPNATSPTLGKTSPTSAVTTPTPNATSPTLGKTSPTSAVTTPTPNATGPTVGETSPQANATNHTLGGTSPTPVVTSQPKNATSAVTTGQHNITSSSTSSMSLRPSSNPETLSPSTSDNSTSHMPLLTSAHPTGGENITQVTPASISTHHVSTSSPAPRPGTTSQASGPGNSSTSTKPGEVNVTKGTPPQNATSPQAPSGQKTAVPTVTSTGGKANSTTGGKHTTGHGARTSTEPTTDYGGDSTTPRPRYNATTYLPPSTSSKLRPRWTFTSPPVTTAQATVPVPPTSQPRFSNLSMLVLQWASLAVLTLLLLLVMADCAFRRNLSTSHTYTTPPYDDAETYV

Target: CR2 (UniProt P20023)
Assay: structure of the complex

EBV gp350 protein (GenBank: AIM62208.1) (from UniProt P03200 2-425) (ligand)
binding: binds
